Values from PubChem BioAssay AID1224830 (NIAID, 2016).
This is a random part of about 18,000 reagents. About 2,900 of them (16%) count as active. 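Calls are made per well; low scores hint the gene aids the LPS response, high scores that it dampens it.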 Entries without a mark were called inactive. Repeated entries: four replicate wells of each siRNA pool. Reagent sequences are not shown.

Test: 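Genes whose knock-down alters the TNF-alpha reporter response to LPS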 (primary screen)
Cell system: human THP-1 monocytic leukaemia cells, TNF dual-luciferase reporter clone, PMA-differentiated to macrophage-like cells
Knock-down reagent: siRNA pool against human genes, 50 nM
Duration: LPS for 4 h, given about 3 days after siRNA transfection
Conditions: bacterial LPS (TLR4 ligand), 10 ng/ml
Measurement: 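TNF firefly reporter luminescence divided by renilla, normalised to the plate median, then turned into a robust z-score for each replicate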
Scale: TNF reporter robust z-score: higher = stronger TNF reporter response to LPS
Hit rule: 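Each well counts as active if its z-score is over 2.8 or under -1.5; controls are left without a call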

gene | TNF reporter robust z-score
RUNDC1 | -0.11
RUNDC1 | -1.01
RUNDC1 | 0.21
RUNDC1 | 0.64
LYSMD2 | 2.64
LYSMD2 | 1.59
LYSMD2 | 0.6
LYSMD2 | -0.9
GYG2 | -0.16
GYG2 | -0.89
GYG2 | -0.27
GYG2 | 1.16
CST5 | 0.96
CST5 | 1.22
CST5 | 1.4
CST5 | 4.19 (active)
TECTA | -0.66
TECTA | 1.11
TECTA | 0.14
TECTA | 0.28
ERP44 | -0.44
ERP44 | 0.74
ERP44 | -0.38
ERP44 | -0.39
SCEL | -1.28
SCEL | -0.09
SCEL | -1.01
SCEL | 0.18
IGFBP1 | 0.37
IGFBP1 | -0.92
IGFBP1 | -1.24
IGFBP1 | -0.79
ITIH3 | -0.54
ITIH3 | -0.35
ITIH3 | -1.25
ITIH3 | -0.44
PLIN4 | -0.33
PLIN4 | -0.34
PLIN4 | 0.05
PLIN4 | -0.17

A run of entries taken from the entries so far:
gene | TNF reporter robust z-score
ERP44 | -0.38
ERP44 | -0.39
SCEL | -1.28
SCEL | -0.09

The list goes on:
gene | TNF reporter robust z-score
ALG11 | -0.96
ALG11 | -0.18
ALG11 | -0.83
ALG11 | -0.34
BAG3 | -0.01
BAG3 | 0.94
BAG3 | -0.67
BAG3 | -0.74
CT47A8 | 2.32
CT47A8 | 2.47
CT47A8 | 0.14
CT47A8 | 3.13 (active)
ADAM7 | 0.93
ADAM7 | -0.26
ADAM7 | -0.03
ADAM7 | 0.77
MAP4K1 | -1.24
MAP4K1 | -0.34
MAP4K1 | -2.01 (active)
MAP4K1 | 0.18
CBFA2T3 | -0.56
CBFA2T3 | 0.45
CBFA2T3 | -0.27
CBFA2T3 | 0.73
PDZRN3 | -0.36
PDZRN3 | 0.56
PDZRN3 | 1.09
PDZRN3 | 0.7
ARMCX1 | 0.39
ARMCX1 | 0.82
ARMCX1 | 1.46
ARMCX1 | 1.22
EXT1 | -1.08
EXT1 | -0.33
EXT1 | -0.61
EXT1 | -0.53
